In the supplement of paper PMC10849652:
The other results are listed elsewhere or left out.

Chains of the proteins cited; added tags and fusions are not shown. Lines headed by an entry give the natural chain unless they say otherwise; changes in a name come on top.
UniProt Q99426: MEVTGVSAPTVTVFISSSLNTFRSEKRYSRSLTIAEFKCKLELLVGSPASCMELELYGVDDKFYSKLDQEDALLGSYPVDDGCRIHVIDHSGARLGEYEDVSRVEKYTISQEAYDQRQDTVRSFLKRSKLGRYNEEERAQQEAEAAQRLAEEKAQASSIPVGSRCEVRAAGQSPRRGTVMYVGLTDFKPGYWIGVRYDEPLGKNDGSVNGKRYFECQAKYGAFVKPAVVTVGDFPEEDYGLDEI
UniProt Q96BS2: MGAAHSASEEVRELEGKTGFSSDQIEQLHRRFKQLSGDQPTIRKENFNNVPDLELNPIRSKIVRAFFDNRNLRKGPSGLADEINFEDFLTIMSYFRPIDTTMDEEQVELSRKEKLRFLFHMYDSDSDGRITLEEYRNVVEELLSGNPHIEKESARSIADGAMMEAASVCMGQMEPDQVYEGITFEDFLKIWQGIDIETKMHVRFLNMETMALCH
UniProt Q9UGI8: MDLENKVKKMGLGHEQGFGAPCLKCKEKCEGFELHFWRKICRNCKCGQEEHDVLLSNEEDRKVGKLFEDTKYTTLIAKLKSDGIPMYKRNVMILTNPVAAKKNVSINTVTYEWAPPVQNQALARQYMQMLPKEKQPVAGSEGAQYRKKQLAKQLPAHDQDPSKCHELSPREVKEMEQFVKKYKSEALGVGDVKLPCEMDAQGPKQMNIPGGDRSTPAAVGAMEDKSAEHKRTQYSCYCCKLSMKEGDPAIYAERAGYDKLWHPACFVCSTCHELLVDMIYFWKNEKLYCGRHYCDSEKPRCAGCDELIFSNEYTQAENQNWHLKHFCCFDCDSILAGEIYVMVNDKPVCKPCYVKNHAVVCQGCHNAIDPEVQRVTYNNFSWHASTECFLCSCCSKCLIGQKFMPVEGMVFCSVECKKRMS
UniProt Q92844: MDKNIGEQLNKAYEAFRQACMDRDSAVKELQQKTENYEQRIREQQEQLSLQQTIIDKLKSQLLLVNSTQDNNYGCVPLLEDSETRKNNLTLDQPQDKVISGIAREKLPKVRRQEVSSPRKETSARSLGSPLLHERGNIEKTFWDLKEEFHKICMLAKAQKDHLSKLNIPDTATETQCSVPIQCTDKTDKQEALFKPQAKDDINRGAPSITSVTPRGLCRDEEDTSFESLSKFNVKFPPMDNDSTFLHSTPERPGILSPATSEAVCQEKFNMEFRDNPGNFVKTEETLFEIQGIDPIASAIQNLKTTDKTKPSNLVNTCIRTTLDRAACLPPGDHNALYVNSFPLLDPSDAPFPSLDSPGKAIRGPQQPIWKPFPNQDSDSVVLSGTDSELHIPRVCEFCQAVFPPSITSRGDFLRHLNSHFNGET
UniProt Q8WVM0: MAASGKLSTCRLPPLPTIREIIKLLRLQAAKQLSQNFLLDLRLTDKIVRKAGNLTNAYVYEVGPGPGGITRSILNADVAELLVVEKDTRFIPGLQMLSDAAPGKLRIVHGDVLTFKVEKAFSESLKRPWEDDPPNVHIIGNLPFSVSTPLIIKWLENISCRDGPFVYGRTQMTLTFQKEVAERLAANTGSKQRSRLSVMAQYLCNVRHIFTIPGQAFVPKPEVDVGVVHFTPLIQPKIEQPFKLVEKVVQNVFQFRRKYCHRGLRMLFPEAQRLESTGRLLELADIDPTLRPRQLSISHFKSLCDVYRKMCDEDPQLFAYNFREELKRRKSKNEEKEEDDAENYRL
UniProt Q9Y4R8, whole entry, looked up: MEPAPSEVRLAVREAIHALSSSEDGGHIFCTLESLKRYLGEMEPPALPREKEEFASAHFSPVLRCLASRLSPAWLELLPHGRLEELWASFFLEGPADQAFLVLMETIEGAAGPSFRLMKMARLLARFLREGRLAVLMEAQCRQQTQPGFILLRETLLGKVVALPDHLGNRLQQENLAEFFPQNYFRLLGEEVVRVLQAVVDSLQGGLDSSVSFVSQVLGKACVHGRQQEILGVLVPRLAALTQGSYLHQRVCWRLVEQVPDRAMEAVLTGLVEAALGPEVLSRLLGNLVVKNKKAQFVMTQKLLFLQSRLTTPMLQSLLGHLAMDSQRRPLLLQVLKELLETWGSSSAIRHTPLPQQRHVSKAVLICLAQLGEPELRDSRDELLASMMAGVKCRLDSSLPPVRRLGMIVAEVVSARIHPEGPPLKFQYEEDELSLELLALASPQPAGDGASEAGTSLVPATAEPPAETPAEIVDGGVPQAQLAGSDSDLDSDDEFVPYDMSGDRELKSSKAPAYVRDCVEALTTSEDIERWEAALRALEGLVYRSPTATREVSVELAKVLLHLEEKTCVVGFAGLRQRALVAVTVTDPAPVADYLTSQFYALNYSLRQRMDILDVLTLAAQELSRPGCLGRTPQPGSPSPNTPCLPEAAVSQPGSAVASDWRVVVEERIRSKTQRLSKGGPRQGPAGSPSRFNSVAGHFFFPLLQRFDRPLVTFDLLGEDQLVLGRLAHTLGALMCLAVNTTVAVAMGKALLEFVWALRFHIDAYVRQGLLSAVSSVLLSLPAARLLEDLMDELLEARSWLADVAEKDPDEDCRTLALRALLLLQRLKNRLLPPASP
UniProt Q9BYX2: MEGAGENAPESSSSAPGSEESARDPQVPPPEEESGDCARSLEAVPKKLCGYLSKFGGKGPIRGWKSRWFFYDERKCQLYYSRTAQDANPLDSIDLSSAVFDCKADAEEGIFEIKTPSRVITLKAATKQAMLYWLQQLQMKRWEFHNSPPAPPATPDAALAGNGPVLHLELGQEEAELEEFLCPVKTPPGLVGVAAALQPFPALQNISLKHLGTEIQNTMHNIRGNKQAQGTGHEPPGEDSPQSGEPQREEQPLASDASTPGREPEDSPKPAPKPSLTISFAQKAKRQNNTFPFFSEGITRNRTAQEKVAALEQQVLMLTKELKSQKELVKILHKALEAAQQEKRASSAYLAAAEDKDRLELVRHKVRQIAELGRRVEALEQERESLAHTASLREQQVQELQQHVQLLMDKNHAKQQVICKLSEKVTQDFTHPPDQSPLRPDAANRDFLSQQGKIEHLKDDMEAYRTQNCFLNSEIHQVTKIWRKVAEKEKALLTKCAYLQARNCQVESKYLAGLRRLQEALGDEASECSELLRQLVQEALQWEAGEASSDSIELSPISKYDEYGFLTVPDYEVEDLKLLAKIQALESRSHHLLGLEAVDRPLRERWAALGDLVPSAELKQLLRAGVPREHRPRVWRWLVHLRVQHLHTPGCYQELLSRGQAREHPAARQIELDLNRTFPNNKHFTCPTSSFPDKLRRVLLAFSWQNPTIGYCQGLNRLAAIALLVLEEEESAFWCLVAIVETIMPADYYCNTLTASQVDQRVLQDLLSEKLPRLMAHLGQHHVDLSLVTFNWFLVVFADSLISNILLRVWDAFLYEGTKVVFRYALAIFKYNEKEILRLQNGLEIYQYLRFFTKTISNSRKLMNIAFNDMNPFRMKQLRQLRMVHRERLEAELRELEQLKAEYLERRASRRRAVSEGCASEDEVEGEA
UniProt P37802: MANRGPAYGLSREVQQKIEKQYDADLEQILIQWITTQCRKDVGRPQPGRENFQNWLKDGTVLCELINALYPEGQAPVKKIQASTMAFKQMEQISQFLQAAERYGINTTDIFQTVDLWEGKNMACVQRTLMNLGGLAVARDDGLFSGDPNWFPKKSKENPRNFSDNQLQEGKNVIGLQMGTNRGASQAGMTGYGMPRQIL
UniProt Q9Y6I9: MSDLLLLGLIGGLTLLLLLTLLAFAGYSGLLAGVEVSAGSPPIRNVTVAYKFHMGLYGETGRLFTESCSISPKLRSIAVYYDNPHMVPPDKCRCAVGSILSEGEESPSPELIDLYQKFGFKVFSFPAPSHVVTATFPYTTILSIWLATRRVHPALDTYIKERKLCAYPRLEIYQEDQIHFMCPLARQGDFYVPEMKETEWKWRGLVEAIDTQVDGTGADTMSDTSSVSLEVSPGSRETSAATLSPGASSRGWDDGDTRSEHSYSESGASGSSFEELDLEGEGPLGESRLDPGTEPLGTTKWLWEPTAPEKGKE
UniProt Q7L7X3: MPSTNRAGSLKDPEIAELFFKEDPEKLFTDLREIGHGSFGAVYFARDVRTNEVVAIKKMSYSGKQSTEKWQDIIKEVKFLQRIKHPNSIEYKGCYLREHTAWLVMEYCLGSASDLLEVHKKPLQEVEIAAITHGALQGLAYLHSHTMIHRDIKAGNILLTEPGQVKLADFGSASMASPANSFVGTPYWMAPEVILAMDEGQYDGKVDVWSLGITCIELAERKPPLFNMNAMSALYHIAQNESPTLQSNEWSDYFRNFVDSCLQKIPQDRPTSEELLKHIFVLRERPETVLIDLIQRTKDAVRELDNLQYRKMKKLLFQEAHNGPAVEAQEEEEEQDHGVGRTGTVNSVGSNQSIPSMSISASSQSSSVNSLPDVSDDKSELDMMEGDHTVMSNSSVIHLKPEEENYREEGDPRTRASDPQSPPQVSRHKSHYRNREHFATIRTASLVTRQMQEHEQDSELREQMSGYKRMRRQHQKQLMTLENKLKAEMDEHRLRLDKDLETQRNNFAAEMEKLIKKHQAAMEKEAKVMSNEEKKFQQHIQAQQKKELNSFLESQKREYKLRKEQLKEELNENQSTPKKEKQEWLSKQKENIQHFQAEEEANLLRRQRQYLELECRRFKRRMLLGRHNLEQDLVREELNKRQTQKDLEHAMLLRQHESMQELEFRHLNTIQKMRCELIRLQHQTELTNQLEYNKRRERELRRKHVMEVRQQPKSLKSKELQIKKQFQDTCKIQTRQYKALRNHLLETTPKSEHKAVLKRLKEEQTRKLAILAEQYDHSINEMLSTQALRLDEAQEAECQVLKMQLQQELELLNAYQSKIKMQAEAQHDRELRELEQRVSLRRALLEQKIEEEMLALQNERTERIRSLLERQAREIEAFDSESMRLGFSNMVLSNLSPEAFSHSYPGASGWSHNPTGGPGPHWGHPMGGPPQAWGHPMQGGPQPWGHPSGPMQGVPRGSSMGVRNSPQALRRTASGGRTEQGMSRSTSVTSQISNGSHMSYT
UniProt Q8NHU6: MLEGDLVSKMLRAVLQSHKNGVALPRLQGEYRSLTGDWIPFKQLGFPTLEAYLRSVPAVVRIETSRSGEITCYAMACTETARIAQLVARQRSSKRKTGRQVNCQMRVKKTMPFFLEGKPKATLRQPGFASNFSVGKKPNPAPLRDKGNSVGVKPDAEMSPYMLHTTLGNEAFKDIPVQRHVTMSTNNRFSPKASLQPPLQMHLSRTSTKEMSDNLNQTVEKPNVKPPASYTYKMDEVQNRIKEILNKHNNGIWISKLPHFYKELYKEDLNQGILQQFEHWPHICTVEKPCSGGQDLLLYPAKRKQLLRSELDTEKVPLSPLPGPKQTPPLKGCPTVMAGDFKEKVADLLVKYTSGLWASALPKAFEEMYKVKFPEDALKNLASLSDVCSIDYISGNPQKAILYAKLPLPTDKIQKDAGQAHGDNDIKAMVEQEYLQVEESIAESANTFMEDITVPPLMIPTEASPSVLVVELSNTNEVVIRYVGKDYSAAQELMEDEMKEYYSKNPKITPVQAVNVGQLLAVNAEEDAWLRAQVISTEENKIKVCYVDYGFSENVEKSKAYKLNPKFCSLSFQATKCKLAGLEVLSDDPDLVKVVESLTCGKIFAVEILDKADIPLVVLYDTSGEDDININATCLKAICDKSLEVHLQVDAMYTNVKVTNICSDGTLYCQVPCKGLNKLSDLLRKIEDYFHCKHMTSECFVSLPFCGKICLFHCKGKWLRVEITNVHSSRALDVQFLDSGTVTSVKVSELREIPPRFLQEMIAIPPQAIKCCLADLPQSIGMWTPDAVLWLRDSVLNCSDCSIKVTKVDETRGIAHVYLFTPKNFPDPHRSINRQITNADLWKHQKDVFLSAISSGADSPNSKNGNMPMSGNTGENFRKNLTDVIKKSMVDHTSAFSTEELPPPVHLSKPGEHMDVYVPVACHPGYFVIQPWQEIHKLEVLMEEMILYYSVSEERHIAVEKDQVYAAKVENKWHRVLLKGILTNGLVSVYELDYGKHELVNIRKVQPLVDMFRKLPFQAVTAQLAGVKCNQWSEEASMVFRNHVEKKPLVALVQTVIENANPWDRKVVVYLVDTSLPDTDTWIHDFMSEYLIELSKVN
UniProt Q15813: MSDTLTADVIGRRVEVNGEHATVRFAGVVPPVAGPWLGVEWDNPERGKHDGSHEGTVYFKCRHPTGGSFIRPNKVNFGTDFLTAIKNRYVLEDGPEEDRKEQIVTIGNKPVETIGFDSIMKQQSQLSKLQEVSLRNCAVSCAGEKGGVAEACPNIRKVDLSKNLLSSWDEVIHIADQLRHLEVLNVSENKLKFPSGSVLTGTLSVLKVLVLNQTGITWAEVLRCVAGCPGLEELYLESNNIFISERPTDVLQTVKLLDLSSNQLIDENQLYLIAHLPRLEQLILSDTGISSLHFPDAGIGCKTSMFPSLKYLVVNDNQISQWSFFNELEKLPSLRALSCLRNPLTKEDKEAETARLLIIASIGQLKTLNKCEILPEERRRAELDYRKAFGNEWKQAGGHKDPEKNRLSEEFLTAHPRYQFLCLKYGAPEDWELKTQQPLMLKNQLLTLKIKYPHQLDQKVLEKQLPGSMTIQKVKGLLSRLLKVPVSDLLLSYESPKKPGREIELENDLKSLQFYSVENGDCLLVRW

Experiments:
Assay in all cases: log2 fold change, soluble protein after heating vs DMSO (PISA); higher = thermal stabilisation; K562 lysate, 10 uM; active = over 0.2 and 3.5 SD of the protein, either way, in both replicates (recomputed)
[1] = compound: C=CC(=O)N1CCC[C@@H](n2nc(-c3ccc(Oc4ccccc4)cc3)c3c(N)ncnc32)C1 [ibrutinib]
In short: (§1)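 Following dounce homogenisation of K562 pellets in PBS pH 7.4 with 1 mM MgCl2, crude extract at 1 mg/mL protein was incubated for 30 min with 10 μM compound. Aliquots were then heated for 3 min over 48°C-58°C and pooled, NP-40 was added to 0.5% at 4°C, and soluble protein was recovered as the supernatant at 21,000xg for 90 min. Channel-sum-equalised TMTpro 16plex LC-MS/MS quantified this protein. Each value, from duplicates, is a log-two fold change in thermal stability relative to solvent controls.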

[2] = compound: CC(=O)c1cnc2ccc(-c3cc(Cl)c(O)c(Cl)c3)nc2c1N[C@H]1CC[C@H](CN(C)C)CC1
In short: as §1

[3] = compound: CC(C)(C)Cn1c(N)nc2ccc(-c3[nH]c(C(C)(C)C)nc3-c3ccc(F)cc3)nc21 [ralimetinib]
In short: as §1

[4] = compound: CC(C)(O)CC(=O)NCCn1ccc2ncnc(Nc3ccc(Oc4cccc(C(F)(F)F)c4)c(Cl)c3)c21
In short: as §1

[5] = compound: CC(C)C1=C2N=C(C=C(N2N=C1)NCC3=CC=CC=C3)NCCCCCCN
In short: as §1

[6] = compound: CC1=C(C(CC(=O)N1)C2=CC=C(C=C2)C(F)(F)F)C(=O)NC3=C(C=C4C(=C3)C=NN4)F
In short: as §1

[7] = compound: CC1=C(C2=C(C=C1)C(=O)C3=CC=CC=C3N2CCCN)C
In short: as §1

[8] = compound: CC1=C(C=C(C=C1)NC(=O)C2=CC(=CC=C2)C(C)(C)C#N)NC3=CC4=C(C=C3)N=CN(C4=O)C
In short: as §1

[9] = compound: CC1=C(C=C(C=C1)NC(=O)C2=CC(=CC=C2)N(C)C)NC(=O)C3=CC=C(C=C3)O
In short: as §1

[10] = compound: CC1=CC=C(C=C1)SC2=C3C=C(SC3=CN=C2)C(=O)N
In short: as §1

[11] = compound: CCCS(=O)(=O)Nc1ccc(F)c(C(=O)c2c[nH]c3ncc(-c4ccc(Cl)cc4)cc23)c1F [vemurafenib]
In short: as §1

[12] = compound: CCCS(=O)(=O)Nc1ccc(F)c(C(=O)c2c[nH]c3ncc(Cl)cc23)c1F
In short: as §1

[13] = compound: CCN(CCCOc1ccc2c(Nc3cc(CC(=O)Nc4cccc(F)c4)[nH]n3)ncnc2c1)CCOP(=O)(O)O [barasertib]
In short: as §1

[14] = compound: CC[C@@H]1C(=O)N(C)c2cnc(Nc3ccc(C(=O)NC4CCN(C)CC4)cc3OC)nc2N1C1CCCC1
In short: as §1

[15] = compound: CC[C@@H]1C(=O)N(C)c2cnc(Nc3ccc(C(=O)N[C@H]4CC[C@H](N5CCN(CC6CC6)CC5)CC4)cc3OC)nc2N1C(C)C [volasertib]
In short: as §1

[16] = compound: CCn1c(C(=O)N(C2CC2)C2CC2)cc2c3c(ncn3C)c(Nc3cc(C)n(C)n3)nc21
In short: as §1

[17] = compound: CCn1cc(-c2ccnc3[nH]c(-c4cccc(CN(C)C)c4)cc23)c(-c2ccc(NC(=O)N(C)C)cc2)n1
In short: as §1

[18] = compound: CN1CCC(CNc2ccc3ncc(-c4cccc(OC(F)(F)F)c4)n3n2)CC1
In short: as §1

[19] = compound: CN1CCN(CCOc2cc(OC3CCOCC3)c3c(Nc4c(Cl)ccc5c4OCO5)ncnc3c2)CC1 [saracatinib]
In short: as §1

[20] = compound: CN1CCN(c2nc(C3=C(c4c[nH]c5ccccc45)C(=O)NC3=O)c3ccccc3n2)CC1 [sotrastaurin]
In short: as §1

Row | Target | log2 fold change [1] | log2 fold change [2] | log2 fold change [3] | log2 fold change [4] | log2 fold change [5] | log2 fold change [6] | log2 fold change [7] | log2 fold change [8] | log2 fold change [9] | log2 fold change [10] | log2 fold change [11] | log2 fold change [12] | log2 fold change [13] | log2 fold change [14] | log2 fold change [15] | log2 fold change [16] | log2 fold change [17] | log2 fold change [18] | log2 fold change [19] | log2 fold change [20]
1 | TBCB (UniProt Q99426) | inactive: -0.052 | inactive: 0.019 | inactive: 0.017 | inactive: 0.003 | inactive: -0.01 | inactive: 0.008 | inactive: -0.002 | inactive: 0.047 | inactive: -0.008 | inactive: -0.001 | inactive: -0.014 | inactive: -0.012 | inactive: -0.059 | inactive: 0.012 | inactive: 0.012 | inactive: -0.001 | inactive: -0.101 | inactive: 0.046 | inactive: -0.003 | inactive: -0.002
2 | TESC (UniProt Q96BS2) | inactive: 0.065 | inactive: -0.029 | inactive: 0.005 | inactive: 0.056 | inactive: -0.055 | inactive: 0.043 | inactive: 0.015 | inactive: 0 | inactive: -0.013 | inactive: -0.077 | inactive: 0.045 | inactive: 0.029 | active: 0.291 | inactive: 0.047 | inactive: 0.036 | inactive: -0.004 | inactive: 0.109 | inactive: -0.023 | inactive: 0.063 | inactive: 0.012
3 | TES (UniProt Q9UGI8) | inactive: -0.016 | inactive: -0.01 | inactive: -0.02 | inactive: -0.016 | inactive: -0.008 | inactive: -0.04 | inactive: -0.026 | inactive: 0.058 | inactive: -0.006 | inactive: -0.008 | inactive: -0.006 | inactive: -0.007 | inactive: -0.007 | inactive: 0.047 | inactive: 0.018 | inactive: -0.004 | inactive: -0.005 | inactive: 0.026 | inactive: -0.013 | inactive: -0.052
4 | TANK (UniProt Q92844) | inactive: 0.042 | inactive: 0.086 | inactive: -0.049 | inactive: -0.003 | inactive: 0.044 | inactive: 0.061 | inactive: 0.018 | inactive: 0 | inactive: 0.054 | inactive: 0.002 | inactive: 0.023 | inactive: 0.004 | inactive: 0.007 | inactive: -0.026 | inactive: -0.02 | inactive: 0.004 | inactive: 0.18 | inactive: -0.054 | inactive: 0.01 | inactive: 0
5 | TFB1M (UniProt Q8WVM0) | inactive: 0.014 | inactive: 0.002 | inactive: 0.041 | inactive: -0.021 | inactive: -0.016 | inactive: 0.006 | inactive: -0.02 | inactive: -0.088 | inactive: 0.019 | inactive: -0.005 | inactive: 0.036 | inactive: 0.018 | inactive: -0.052 | inactive: -0.048 | inactive: -0.025 | inactive: 0.08 | inactive: -0.013 | inactive: 0.075 | inactive: 0.029 | inactive: 0.008
6 | TELO2 (UniProt Q9Y4R8) | inactive: -0.023 | inactive: 0 | inactive: 0.019 | inactive: -0.052 | inactive: 0.002 | inactive: 0.029 | inactive: -0.015 | inactive: 0.006 | inactive: 0.014 | inactive: 0.017 | inactive: 0.063 | inactive: 0 | inactive: 0.088 | inactive: -0.073 | inactive: -0.071 | inactive: 0.048 | inactive: -0.017 | inactive: -0.043 | inactive: 0 | inactive: 0.037
7 | TBC1D2 (UniProt Q9BYX2) | inactive: 0.06 | inactive: 0 | inactive: 0.084 | inactive: -0.037 | inactive: -0.004 | inactive: -0.035 | inactive: -0.029 | inactive: 0.017 | inactive: 0 | inactive: -0.036 | inactive: 0.03 | inactive: 0.025 | inactive: 0.003 | inactive: 0.131 | inactive: -0.021 | inactive: 0.026 | inactive: -0.024 | inactive: -0.033 | inactive: 0.036 | inactive: -0.018
8 | TAGLN2 isoform 2 (UniProt P37802) | inactive: 0.048 | inactive: 0 | inactive: -0.011 | inactive: -0.012 | inactive: -0.003 | inactive: -0.027 | inactive: 0 | inactive: 0.009 | inactive: 0.003 | inactive: -0.025 | inactive: -0.001 | inactive: 0 | inactive: 0.099 | inactive: 0.039 | inactive: 0.016 | inactive: -0.008 | inactive: 0.07 | inactive: -0.004 | inactive: 0.009 | inactive: -0.02
9 | TEX264 (UniProt Q9Y6I9) | inactive: -0.033 | inactive: -0.006 | inactive: -0.028 | inactive: 0.013 | inactive: 0.439 | inactive: -0.026 | inactive: -0.011 | inactive: 0.05 | inactive: -0.037 | inactive: -0.005 | inactive: -0.053 | inactive: -0.039 | inactive: -0.005 | inactive: -0.03 | inactive: 0.069 | inactive: -0.001 | inactive: 0.652 | inactive: 0.006 | inactive: 0.024 | inactive: -0.03
10 | TBPL1 (UniProt P62380) | inactive: 0.049 | inactive: 0.001 | inactive: 0.043 | inactive: -0.019 | inactive: 0.051 | inactive: 0.01 | inactive: 0.056 | inactive: -0.023 | inactive: -0.028 | inactive: 0.035 | inactive: -0.02 | inactive: 0.008 | inactive: -0.013 | inactive: -0.01 | inactive: -0.036 | inactive: -0.082 | inactive: -0.076 | inactive: 0.08 | inactive: -0.067 | inactive: 0.019
11 | TARSL2 (UniProt A2RTX5) | inactive: -0.009 | inactive: -0.008 | inactive: -0.011 | inactive: -0.01 | inactive: -0.026 | inactive: -0.037 | inactive: -0.037 | inactive: 0.023 | inactive: 0.043 | inactive: 0.004 | inactive: -0.006 | inactive: -0.007 | inactive: 0.006 | inactive: -0.015 | inactive: -0.03 | inactive: -0.055 | inactive: -0.083 | inactive: 0.035 | inactive: 0.033 | inactive: -0.005
12 | TAOK1 (UniProt Q7L7X3) | inactive: 0.061 | inactive: -0.086 | inactive: -0.006 | inactive: 0.006 | inactive: 0.005 | inactive: -0.014 | inactive: 0.028 | inactive: 0.015 | inactive: 0.011 | inactive: 0.112 | inactive: 0.042 | inactive: 0.023 | inactive: -0.01 | inactive: 0.086 | inactive: -0.005 | inactive: -0.027 | inactive: 0.114 | inactive: -0.073 | inactive: 0.001 | inactive: 0.005
13 | TDRD7 (UniProt Q8NHU6) | inactive: -0.004 | inactive: -0.003 | inactive: 0.035 | inactive: -0.043 | inactive: -0.026 | inactive: 0.033 | inactive: -0.013 | inactive: 0.06 | inactive: 0.012 | inactive: -0.016 | inactive: 0.02 | inactive: -0.035 | inactive: -0.003 | inactive: -0.008 | inactive: 0 | inactive: 0.027 | inactive: -0.031 | inactive: 0.009 | inactive: 0.025 | inactive: 0.013
14 | TARDBP (UniProt Q13148) | inactive: -0.161 | inactive: 0.052 | inactive: -0.004 | inactive: -0.076 | inactive: 0.015 | inactive: 0.019 | inactive: 0.068 | inactive: -0.059 | inactive: 0.01 | inactive: 0.019 | inactive: 0.027 | inactive: 0.016 | inactive: 0.151 | inactive: 0.007 | inactive: -0.125 | inactive: 0.169 | inactive: -0.008 | inactive: -0.069 | inactive: 0.058 | inactive: -0.032
15 | TCOF1 isoform 4 (UniProt Q13428) | inactive: 0.006 | inactive: -0.017 | inactive: -0.015 | inactive: -0.018 | inactive: -0.003 | inactive: -0.018 | inactive: -0.021 | inactive: 0.026 | inactive: 0 | inactive: -0.014 | inactive: 0.014 | inactive: -0.002 | inactive: 0.003 | inactive: 0.052 | inactive: 0.013 | inactive: -0.023 | inactive: -0.09 | inactive: 0.023 | inactive: 0.011 | inactive: 0.027
16 | TBCE (UniProt Q15813) | inactive: -0.027 | inactive: 0.004 | inactive: 0.037 | inactive: 0.01 | inactive: -0.004 | inactive: 0.003 | inactive: 0.004 | inactive: -0.007 | inactive: 0.025 | inactive: -0.016 | inactive: 0.04 | inactive: 0.015 | inactive: 0.024 | inactive: -0.065 | inactive: -0.082 | inactive: 0.048 | inactive: -0.044 | inactive: -0.023 | inactive: 0.013 | inactive: 0.001

A few values from the entries so far.
Under log2 fold change [8], TARSL2 (UniProt A2RTX5) has inactive: 0.023
Under log2 fold change [13], TCOF1 isoform 4 (UniProt Q13428) has inactive: 0.003
